In publication PMC8464072:
For some of these results: Weaker means in comparison with the reference protein, sequence or condition of that experiment. For some of these results: The exact form of at least one protein or probe is not confirmed. For some of these results: At least one verdict was read from the data and is not stated in words by the source.

Chains of the proteins cited; added tags and fusions are not shown. Residues count along the entry.
UniProt P67809, 1-180: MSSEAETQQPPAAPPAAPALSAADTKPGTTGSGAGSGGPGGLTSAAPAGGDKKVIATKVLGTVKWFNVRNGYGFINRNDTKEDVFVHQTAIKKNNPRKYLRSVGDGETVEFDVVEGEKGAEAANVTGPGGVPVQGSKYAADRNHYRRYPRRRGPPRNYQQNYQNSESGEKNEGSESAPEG
UniProt P67809, 1-180 K137A/Y138A: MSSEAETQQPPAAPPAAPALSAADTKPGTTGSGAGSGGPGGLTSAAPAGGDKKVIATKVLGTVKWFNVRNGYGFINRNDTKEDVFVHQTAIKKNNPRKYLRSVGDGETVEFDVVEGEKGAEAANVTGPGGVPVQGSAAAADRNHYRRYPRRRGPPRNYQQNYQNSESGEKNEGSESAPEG
UniProt P67809, 1-180 R97A/K98A: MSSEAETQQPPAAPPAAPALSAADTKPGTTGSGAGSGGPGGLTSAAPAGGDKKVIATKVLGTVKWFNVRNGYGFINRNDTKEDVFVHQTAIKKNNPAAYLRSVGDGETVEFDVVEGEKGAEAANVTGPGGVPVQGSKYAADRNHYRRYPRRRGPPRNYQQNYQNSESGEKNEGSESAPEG
UniProt P67809, 50-129: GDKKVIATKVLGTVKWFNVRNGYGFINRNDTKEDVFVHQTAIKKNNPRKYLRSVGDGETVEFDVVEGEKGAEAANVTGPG

Key:
YB-1C = YB-1C (UniProt P67809); assay: NMR (1H-15N HSQC); settings: single peaks, multimer; NMR: 25 mM phosphate pH 6.8, 25 mM KCl, 298 K, 50-100 uM protein; recombinant protein; residues 1-180; protein details: His tag (Ni-NTA); single-stranded DNA
YB-1-KY K137A,Y138A = YB-1-KY K137A,Y138A (UniProt P67809); assay: fluorescence melting; settings: melting less than YB-1C, read-out is unwinding; melting: 10 mM HEPES-KOH pH 7.6, 130 mM KCl, 30 C; recombinant protein; residues 1-180; protein details: His tag (Ni-NTA); label: 5' FAM, 3' BHQ1; folded or branched DNA
YB-1-RK R97A,K98A = YB-1-RK R97A,K98A (UniProt P67809); assay: fluorescence melting; settings: melting less than YB-1C, read-out is unwinding; melting: 10 mM HEPES-KOH pH 7.6, 130 mM KCl, 30 C; recombinant protein; residues 1-180; protein details: His tag (Ni-NTA); label: 5' FAM, 3' BHQ1; folded or branched DNA
YB-1 CSD = YB-1 CSD (UniProt P67809); assay: NMR (1H-15N HSQC); settings: single peaks; NMR: 25 mM phosphate pH 6.8, 25 mM KCl, 298 K, 50-100 uM protein; recombinant protein; residues 50-129

TTTTTTTTTTTTTTTTTTTTTTTTTTTTTT [poly(T) 30 nt]
binding result (YB-1C): binds

GGGGGGGGTTAACCCCCCCC [DNA1 hairpin]
binding result (YB-1-KY K137A,Y138A): binds more weakly
binding result (YB-1-RK R97A,K98A): binds more weakly

ACAGACAGAACCCCUUCUGUCUGU [ACU-4G RNA stem/loop]
binding result (YB-1 CSD): binds
